These are yes or no findings as the source states them, for the method shown. In cells and extracts the contact can be indirect. Some results given as binding are weak or reduced against the parent protein; the word gives no strength.
Molecular target: β-catenin (endogenous) (human (endogenous in LM3)) (UniProt P35222)
Test: co-IP; endogenous proteins in LM3 cells, RIPA lysis buffer, antibody as indicated in the figure, protein A/G agarose beads, overnight at 4 °C

By UniProt entry, the sequences of proteins in these tests, tags left out.
UniProt P35222: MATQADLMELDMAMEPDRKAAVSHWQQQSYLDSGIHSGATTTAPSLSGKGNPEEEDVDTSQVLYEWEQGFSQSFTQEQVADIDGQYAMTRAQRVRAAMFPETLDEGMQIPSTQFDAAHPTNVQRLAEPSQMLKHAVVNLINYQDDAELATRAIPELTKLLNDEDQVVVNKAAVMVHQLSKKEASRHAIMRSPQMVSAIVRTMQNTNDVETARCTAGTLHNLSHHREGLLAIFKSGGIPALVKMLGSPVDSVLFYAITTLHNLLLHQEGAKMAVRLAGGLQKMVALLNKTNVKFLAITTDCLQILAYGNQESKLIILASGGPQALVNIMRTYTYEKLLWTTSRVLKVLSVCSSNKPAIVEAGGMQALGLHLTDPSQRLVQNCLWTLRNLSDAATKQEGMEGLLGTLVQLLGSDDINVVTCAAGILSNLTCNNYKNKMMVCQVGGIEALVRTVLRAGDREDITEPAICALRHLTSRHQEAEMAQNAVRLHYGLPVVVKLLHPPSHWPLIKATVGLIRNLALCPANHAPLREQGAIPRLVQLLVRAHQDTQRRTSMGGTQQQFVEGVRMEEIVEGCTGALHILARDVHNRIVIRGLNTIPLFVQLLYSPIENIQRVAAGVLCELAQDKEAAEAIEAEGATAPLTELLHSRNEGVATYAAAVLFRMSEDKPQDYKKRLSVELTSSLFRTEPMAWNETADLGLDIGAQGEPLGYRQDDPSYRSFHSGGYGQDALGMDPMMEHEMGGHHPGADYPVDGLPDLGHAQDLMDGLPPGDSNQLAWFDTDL

B1: USP8 (endogenous) (enzyme, UniProt P40818 1-1118)
chain: MPAVASVPKELYLSSSLKDLNKKTEVKPEKISTKSYVHSALKIFKTAEECRLDRDEERAYVLYMKYVTVYNLIKKRPDFKQQQDYFHSILGPGNIKKAVEEAERLSESLKLRYEEAEVRKKLEEKDRQEEAQRLQQKRQETGREDGGTLAKGSLENVLDSKDKTQKSNGEKNEKCETKEKGAITAKELYTMMTDKNISLIIMDARRMQDYQDSCILHSLSVPEEAISPGVTASWIEAHLPDDSKDTWKKRGNVEYVVLLDWFSSAKDLQIGTTLRSLKDALFKWESKTVLRNEPLVLEGGYENWLLCYPQYTTNAKVTPPPRRQNEEVSISLDFTYPSLEESIPSKPAAQTPPASIEVDENIELISGQNERMGPLNISTPVEPVAASKSDVSPIIQPVPSIKNVPQIDRTKKPAVKLPEEHRIKSESTNHEQQSPQSGKVIPDRSTKPVVFSPTLMLTDEEKARIHAETALLMEKNKQEKELRERQQEEQKEKLRKEEQEQKAKKKQEAEENEITEKQQKAKEEMEKKESEQAKKEDKETSAKRGKEITGVKRQSKSEHETSDAKKSVEDRGKRCPTPEIQKKSTGDVPHTSVTGDSGSGKPFKIKGQPESGILRTGTFREDTDDTERNKAQREPLTRARSEEMGRIVPGLPSGWAKFLDPITGTFRYYHSPTNTVHMYPPEMAPSSAPPSTPPTHKAKPQIPAERDREPSKLKRSYSSPDITQAIQEEEKRKPTVTPTVNRENKPTCYPKAEISRLSASQIRNLNPVFGGSGPALTGLRNLGNTCYMNSILQCLCNAPHLADYFNRNCYQDDINRSNLLGHKGEVAEEFGIIMKALWTGQYRYISPKDFKITIGKINDQFAGYSQQDSQELLLFLMDGLHEDLNKADNRKRYKEENNDHLDDFKAAEHAWQKHKQLNESIIVALFQGQFKSTVQCLTCHKKSRTFEAFMYLSLPLASTSKCTLQDCLRLFSKEEKLTDNNRFYCSHCRARRDSLKKIEIWKLPPVLLVHLKRFSYDGRWKQKLQTSVDFPLENLDLSQYVIGPKNNLKKYNLFSVSNHYGGLDGGHYTAYCKNAARQRWFKFDDHEVSDISVSSVKSSAAYILFYTSLGPRVTDVAT
For B1, which binding is on record?
Its binding is “binds”.

— PMC10264414
